Reference: PMC9503446, “Effects of Medicinal Leech-Related Cationic Antimicrobial Peptides on Human Blood Cells and Plasma” (Molecules, 2022)
Some entries repeat one wording, which the source may state once for all of them. No end group written: not given here.

Assay: Turbidity (optical density at 800 nm) of diluted plasma
Parameters: species or system human
Conditions: peptide concentrations up to 200 μM

| Substance | Aggregate formation (turbidity) in five-times diluted plasma |
| --- | --- |
| KFKKVIWKSFL-NH2 (C-terminus assumed) [pept_4] | did not cause significant aggregate formation |
| FLIGKAIKRKFCLRSVWNA [pept_7, synthetic short cationic antimicrobial peptide designed by bioinformatic analysis of the medicinal leech genome and microbiome] | did not cause significant aggregate formation |
| RLKRFKRVALRREKTARNFRSIVS [pept_6, synthetic short cationic antimicrobial peptide designed by bioinformatic analysis of the medicinal leech genome and microbiome] | did not cause significant aggregate formation |
| RPILIRVRRIRVI-NH2 (C-terminus assumed) [pept_5] | did not cause significant aggregate formation |
| RAVIYKIPYNAIASRWIIAPKKC [pept_8, synthetic short cationic antimicrobial peptide designed by bioinformatic analysis of the medicinal leech genome and microbiome] | did not cause significant aggregate formation |
